From doi:10.1101/2024.03.29.587371
Results are given in words; binding and its absence hold for the method and conditions named. Binding seen in cells or lysates may run through a third protein. Sequences can lack the tags named with a protein.

Protein sequences, listed by entry. Tags and fused reporters are not part of them.
UniProt Q9LIK5: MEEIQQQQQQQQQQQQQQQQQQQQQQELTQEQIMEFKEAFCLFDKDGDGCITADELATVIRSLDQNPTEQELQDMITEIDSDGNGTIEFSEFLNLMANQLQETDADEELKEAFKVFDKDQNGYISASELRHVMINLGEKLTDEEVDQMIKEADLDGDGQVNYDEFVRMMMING
UniProt O23320: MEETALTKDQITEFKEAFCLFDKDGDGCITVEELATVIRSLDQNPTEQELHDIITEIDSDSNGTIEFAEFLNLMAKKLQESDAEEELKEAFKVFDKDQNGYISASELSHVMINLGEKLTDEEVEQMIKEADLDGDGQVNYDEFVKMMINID

How the values were obtained:
Test in all cases: split reporter
[1] = biological target: CLuc-AtCML11 (Arabidopsis thaliana) (UniProt Q9LIK5)
[2] = biological target: T1, CLuc-AtCML42 (Arabidopsis thaliana) (UniProt Q9SVG9)
T1 sequence: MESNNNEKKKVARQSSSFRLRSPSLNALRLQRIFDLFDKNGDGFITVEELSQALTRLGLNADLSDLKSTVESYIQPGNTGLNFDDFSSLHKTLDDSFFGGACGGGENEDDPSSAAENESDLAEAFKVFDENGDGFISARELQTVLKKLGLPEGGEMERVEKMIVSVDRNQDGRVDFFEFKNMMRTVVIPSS

[3] = biological target: CLuc-AtCML8 (Arabidopsis thaliana) (UniProt O23320)

binding [1]: no binding | binding [2]: no binding | binding [3]: no binding
B1: NLuc-AtFBA4 (enzyme, UniProt F4KGQ0 1-393)
chain: MSCFKSKFAGKSYFRRTFHSSIIQFHPQLSILIWHRRYSIIRTYELIANAAYIGTPGKGILAADESTGTIGKRFVSINVENVESNRRALRELLFTTPGALQYISGIILFEETLYQKTASGKLFVDVMKEAGVLPGIKVDKGTVELAGTNGETTTTGLDGLGDRCKKYYEAGARFAKWRAVLKIGNNEPSELAIHENAYGLARYAVICQENGLVPIVEPEILVDGSHDIEKCAYVTERVLAACYKALSDHHVILEGTLLKPNMVTPGSDSGSKVKPEVIAKHTVRALQRTVPAAVPAVVFLSGGQSEEEATVNLNAINQLKGKKPWSLTFSYGRALQQSTLKAWGGKEENVDKAQKAFLARAKANSEATLGGYKGDAQLGEGASESLHVKDYKY
